From patent publication US20250340635A1 come the findings set out here.

By UniProt entry, the sequences of proteins in these tests, tags left out. Where a name states a change or a piece, a line headed by the entry shows the natural chain unless it says otherwise. Residues count along the entry.
UniProt Q95JB9, residues 22-257: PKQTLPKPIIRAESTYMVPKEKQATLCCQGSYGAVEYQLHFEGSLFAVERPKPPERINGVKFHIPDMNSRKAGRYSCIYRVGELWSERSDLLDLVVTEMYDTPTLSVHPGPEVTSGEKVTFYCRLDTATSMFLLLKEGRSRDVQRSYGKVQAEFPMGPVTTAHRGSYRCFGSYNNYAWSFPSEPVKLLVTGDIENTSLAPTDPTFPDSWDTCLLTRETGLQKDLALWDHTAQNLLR
UniProt O76036: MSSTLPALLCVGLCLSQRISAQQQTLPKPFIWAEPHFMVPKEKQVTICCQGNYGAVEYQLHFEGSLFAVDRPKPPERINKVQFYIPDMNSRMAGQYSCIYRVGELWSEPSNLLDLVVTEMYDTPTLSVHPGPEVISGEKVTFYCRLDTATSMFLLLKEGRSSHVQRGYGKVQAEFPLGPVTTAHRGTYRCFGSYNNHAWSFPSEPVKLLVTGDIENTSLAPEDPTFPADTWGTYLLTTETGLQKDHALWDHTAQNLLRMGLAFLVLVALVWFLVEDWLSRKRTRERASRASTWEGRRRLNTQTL

Assay [1] deals with cynomolgus monkey-His fusion protein (cynomolgus monkey) (UniProt Q95JB9). Briefly: ELISA, NKp46-His coated, anti-human HRP.
The target in assay [2] is human NKp46-His fusion protein (human) (UniProt O76036). Briefly: ELISA, NKp46-His coated, anti-human HRP.

Results are given in words; binding and its absence hold for the method and conditions named. Some binding calls cover weakened binding; strength is not graded here.

B1: IN0321 (antibody, human IgG1, kappa, L234A L235A, V domains shown)
VH: QVQLQQPGSELVRPGASVKLSCKASGYTFTSYWMHWVKQRPGQGLEWIGTIYPGSDITNYDEKFKNKATLTVDTSSSTAYMQLSSLTSEDSAVYYCTRDGRFANWGQGTLVTVSA
VL: EIQMTQSPSSLSASLGERVSLTCRASQDIGSSLNWLQQEPDGTIKRLIYATSSLDSGVPKRFSGSRSGSDYSLTISSLESEDFVDYYCLQYASSPYTFGGGTKLEIKR
B1: the binding result in assay [1] and in assay [2] was “binds” in each case.
